Measurements: doi:10.1101/2024.11.20.624400

Tests used:
[1] = molecular target: T1, HA-EDS1 made in Sf9 cells (full-length A. thaliana EDS1, pFastBac HTB) (A. thaliana) (UniProt Q9SU72); test: co-IP
T1 sequence: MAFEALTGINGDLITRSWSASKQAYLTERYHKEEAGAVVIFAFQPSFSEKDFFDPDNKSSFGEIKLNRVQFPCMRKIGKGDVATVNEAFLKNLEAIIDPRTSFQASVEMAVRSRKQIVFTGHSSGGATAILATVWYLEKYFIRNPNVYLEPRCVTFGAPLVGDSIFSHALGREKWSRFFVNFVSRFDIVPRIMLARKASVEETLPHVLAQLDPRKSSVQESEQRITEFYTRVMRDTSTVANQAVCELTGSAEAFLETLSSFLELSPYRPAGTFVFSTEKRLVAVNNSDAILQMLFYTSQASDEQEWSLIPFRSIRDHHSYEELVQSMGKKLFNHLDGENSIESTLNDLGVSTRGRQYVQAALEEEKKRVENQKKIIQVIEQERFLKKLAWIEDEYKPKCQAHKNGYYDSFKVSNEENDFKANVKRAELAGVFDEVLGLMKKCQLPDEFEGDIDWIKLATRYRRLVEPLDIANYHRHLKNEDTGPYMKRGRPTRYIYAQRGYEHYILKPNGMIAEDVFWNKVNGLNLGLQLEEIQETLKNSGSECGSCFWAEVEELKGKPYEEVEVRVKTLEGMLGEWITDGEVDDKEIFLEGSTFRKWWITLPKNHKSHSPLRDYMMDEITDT

[2] = molecular target: T2, EDS1^405-554, fragment of the EDS1 EP domain, in pDEST-GBKT7 (BD) (A. thaliana) (UniProt Q9SU72); test: two-hybrid
T2 sequence: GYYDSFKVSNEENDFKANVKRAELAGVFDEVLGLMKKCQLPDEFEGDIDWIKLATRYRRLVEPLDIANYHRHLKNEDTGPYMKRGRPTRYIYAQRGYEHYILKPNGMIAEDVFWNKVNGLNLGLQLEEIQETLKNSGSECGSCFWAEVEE

| Substance | binding [1] | binding [2] |
| --- | --- | --- |
| CathB6-GFP made in Sf9 cells (CathB6 catalytic domain Arg61-Asn338, pFastBac HTB) (Myzus persicae) (domain or fragment) | binds |  |
| M. persicae CathB6 catalytic domain in pDEST-GADT7 (AD) (Myzus persicae) (domain or fragment) |  | binds |

These are yes or no findings as the source states them, for the method shown. Binding calls can cover weak binding; strength is not graded here. Where a sequence is shown, tags or fusion partners need not be part of it. For some assays here: Binding seen in cells or lysates may run through a third protein.
